For one substance, binding results are on record in publication PMC12145441.

Protein sequences, listed by entry. Tags and fused reporters are not part of them.
UniProt O43791: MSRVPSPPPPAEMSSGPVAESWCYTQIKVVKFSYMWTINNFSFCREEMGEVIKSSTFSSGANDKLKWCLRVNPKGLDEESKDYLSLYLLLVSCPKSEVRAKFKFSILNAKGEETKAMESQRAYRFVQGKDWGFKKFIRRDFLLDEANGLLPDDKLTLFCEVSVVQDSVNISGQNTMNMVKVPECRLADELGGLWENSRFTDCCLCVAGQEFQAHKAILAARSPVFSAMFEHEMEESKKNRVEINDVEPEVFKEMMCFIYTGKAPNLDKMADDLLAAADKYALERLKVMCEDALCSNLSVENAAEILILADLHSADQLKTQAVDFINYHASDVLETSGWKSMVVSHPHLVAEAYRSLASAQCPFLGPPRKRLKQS

The target in this experiment is T1, LMNB2, bait of the tandem affinity purification (TAP-MS) (UniProt Q03252).
T1 sequence: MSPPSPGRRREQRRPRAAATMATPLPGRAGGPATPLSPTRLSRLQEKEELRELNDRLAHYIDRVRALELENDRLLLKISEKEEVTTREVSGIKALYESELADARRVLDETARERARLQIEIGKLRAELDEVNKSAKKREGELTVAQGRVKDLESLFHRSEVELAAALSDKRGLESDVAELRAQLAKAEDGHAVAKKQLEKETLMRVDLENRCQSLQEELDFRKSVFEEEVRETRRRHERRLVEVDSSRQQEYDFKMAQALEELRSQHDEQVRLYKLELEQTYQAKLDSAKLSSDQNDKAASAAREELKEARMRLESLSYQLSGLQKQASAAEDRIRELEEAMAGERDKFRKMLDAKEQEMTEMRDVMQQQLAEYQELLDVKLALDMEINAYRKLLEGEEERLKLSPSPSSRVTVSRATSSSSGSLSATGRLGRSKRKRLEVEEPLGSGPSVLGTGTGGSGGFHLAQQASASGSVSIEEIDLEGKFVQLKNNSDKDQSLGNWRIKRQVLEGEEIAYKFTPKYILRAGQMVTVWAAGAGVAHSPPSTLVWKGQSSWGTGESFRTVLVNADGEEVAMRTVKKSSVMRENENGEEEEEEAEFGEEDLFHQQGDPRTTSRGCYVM
Kind of experiment: affinity purification with mass spectrometry; tandem affinity purification of LMNB2 coupled with mass spectrometry (TAP-MS); cells and tags not stated.

Results are given in words; binding and its absence hold for the method and conditions named. Binding seen in cells or lysates may run through a third protein. Here binding means that the protein was enriched with, or labelled near, the bait; the list need not be complete.

As for “SPOP (speckle-type POZ protein), endogenous (from UniProt O43791 1-374)”, the binding result is listed as “binds”.
